These are yes or no findings as the source states them, for the method shown. Some results given as binding are weak or reduced against the parent protein; the word gives no strength.
Legend:
[1] = target: RFP-stalk-HC (hagfish); assay: expression in HEK 293-F cells (self-association)
[2] = target: RFP-stalk-HC (hagfish); assay: native-PAGE / SDS-PAGE Western blotting (self-association)

binding [1]: binds
binding [2]: binds
Binder: YFPSYIFLHLVHGLAAVPLVYLICHASQLL (peptide, hagfish, not shown: large carriers) [RFP-stalk-HC]

From patent publication US20190315817A1
